PubChem BioAssay (NCATS)
Inconclusive results, whose numbers are uncertain, are shown with a selection of clear calls. For some assays here: Potencies beside an inconclusive call are fits to weak or partial responses and may not hold up. Active and inactive are the calls of the source. Calls come from the whole dose curve; as a rule, active = well fitted curve in the direction sought with a large enough effect; inconclusive = small, poorly fitted or top-dose-only effect, or another doubt; inactive = no such curve, though single readings can be large; an effect the other way counts as inactive or inconclusive.

The chains behind the UniProt entries cited, without tags or fusion partners. Where a name states a change or a piece, a line headed by the entry shows the natural chain unless it says otherwise.
UniProt Q14994: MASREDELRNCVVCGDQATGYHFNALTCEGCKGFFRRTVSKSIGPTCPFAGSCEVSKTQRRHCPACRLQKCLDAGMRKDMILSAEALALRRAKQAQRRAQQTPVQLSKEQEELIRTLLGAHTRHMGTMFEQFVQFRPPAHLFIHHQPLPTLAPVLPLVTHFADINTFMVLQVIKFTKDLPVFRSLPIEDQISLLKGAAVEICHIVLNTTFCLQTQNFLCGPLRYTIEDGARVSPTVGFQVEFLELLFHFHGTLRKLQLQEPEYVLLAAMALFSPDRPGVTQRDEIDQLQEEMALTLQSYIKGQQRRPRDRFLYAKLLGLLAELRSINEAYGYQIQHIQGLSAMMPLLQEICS

Key:
[1] = SDT Cancer Cell Toxicity qHTS against the NCATS CANVASS Library (AID 1347365); note: nearly all actives have a fitted effect of over 60% in size; note: potency is the fitted concentration of half-maximal effect;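 for activity change, negative = cytotoxicity: SDT canine glioma cells 500 per well in 1536 well plates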
Procedure, shortened: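 Dispense 500 SDT cells per well; pin-transfer compounds; incubate 72 hr at 37C, 5% CO2, 95% RH; add CellTiterGlo and read luminescence.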

[2] = target: Nuclear receptor subfamily 1 group I member 3 (Homo sapiens) (UniProt Q14994); test: qHTS for Constitutive Androstane Receptor (CAR) Antagonist screened against the NCATS CANVASS Library (AID 1347372); note: potency is the fitted concentration of half-maximal effect
Procedure, shortened: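 HepG2-CYP2B6-hCAR double-stable cells plated, 4hr attach; cpd pin-transferred; CITCO 50 nM final; 24hr 37C/5% CO2; CellTiter-Fluor 1hr (fluorescence), then ONE-Glo luminescence.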

[3] = COV-362 Cancer Cell Toxicity qHTS against the NCATS CANVASS Library (AID 1347352); note: potency is the fitted concentration of half-maximal effect
Procedure, shortened: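 qHTS cytotoxicity: compounds tested in 11 concentrations on 1000 seeded cells per well over 72 h; bortezomib served as control; signal from CellTiter-Glo luminescence.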

[4] = G06 Cancer Cell Toxicity qHTS against the NCATS CANVASS Library (AID 1347368); note: potency is the fitted concentration of half-maximal effect; nearly all actives have a fitted effect of over 60% in size
Procedure, shortened: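 Cytotoxicity toward canine glioma G06 cells is scored from cellular ATP via luminescence after 72 hr compound exposure at 500 cells/well.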

[5] = J3T Cancer Cell Toxicity qHTS against the NCATS CANVASS Library (AID 1347371); note: potency is the fitted concentration of half-maximal effect
Procedure, shortened: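 Viability of the J3T glioma line from dog is scored by ATP luminescence after a 72 hr incubation with natural products.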

[6] = Vero-766 cells viability qHTS against the NCATS CANVASS Library: Counterscreen for Zika virus inhibition assay (AID 1347394); conditions: Vero 766 viability, CellTiter-Glo luminescence, 72 h; activity change, negative = cytotoxic: at 46.1 µM (top of the series); note: potency is the fitted concentration of half-maximal effect; nearly all actives have a fitted effect of over 60% in size
Procedure, shortened: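 This cytotoxicity counterscreen uses African green monkey Vero 766 cells in the absence of Zika virus. Compounds are incubated with cells for 72 h, and ATP-based luminescence reports viability.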

[7] = KB-3-1 Cancer Cell Toxicity qHTS against the NCATS CANVASS Library (AID 1347366); note: potency is the fitted concentration of half-maximal effect; nearly all actives have a fitted effect of over 75% in size
Procedure, shortened: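 Seed KB-3-1 cells at 500/well in DMEM with 10% FBS, add compounds, incubate 72 hr at 37C and 5% CO2, then add CellTiter-Glo and read luminescence after 10 minutes.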

[8] = qHTS assay for small molecule disruptors of mitochondrial membrane potential screened against the NCATS CANVASS Library (AID 1347389); note: potency is the fitted concentration of half-maximal effect; nearly all actives have a fitted effect of over 60% in size
Procedure, shortened: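 Compounds tested in 11-point qHTS series on HepG2 cells for 1 hr; membrane-potential dye added for 30 min at 37C. Lower red-to-green ratio indicates loss of potential.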

[9] = HEK293 18hr Apoptosis Induction qHTS against the NCATS CANVASS Library (AID 1347357); note: potency is the fitted concentration of half-maximal effect
Procedure, shortened: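 Luminescent caspase-3/7 signal is measured in HEK293 cells exposed for 18 hours to an 11-point concentration series; doxorubicin serves as the plate control.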

[10] = MCF7 Cancer Cell Toxicity qHTS against the NCATS CANVASS Library (AID 1347369); conditions: activity change, negative = cytotoxicity: at 46 µM (top of the series); note: potency is the fitted concentration of half-maximal effect
Procedure, shortened: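 Cytotoxicity is measured by ATP content: MCF7 cells at 500 per well receive an 11-point compound series and, after 72 hr at 37C, are lysed with CellTiterGlo for luminescence.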

[11] = qHTS for ATAD5 Antagonist screened against the NCATS CANVASS Library (AID 1347370); note: potency is the fitted concentration of half-maximal effect; nearly all actives have a fitted effect of over 65% in size
Procedure, shortened: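 HEK293T cells with a stably integrated ATAD5-controlled luciferase reporter were exposed to compounds (11-pt) alongside 10 uM 5-fluorouridine as ATAD5 stabilizer for 16hr at 37C. Viability was read by CellTiter-Fluor fluorescence, then ATAD5 by luminescence.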

[12] = qHTS for Hypoxia signaling pathway (HIF-1) agonists against the NCATS CANVASS Library (AID 1347375); note: potency is the fitted concentration of half-maximal effect
Procedure, shortened: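 Inducers of HIF-1 signaling were detected in ME-180 cells bearing an HRE-driven beta-lactamase reporter after 17 h compound exposure. Activity came from CCF4-AM FRET emission ratio (460/530 nm) in qHTS format.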

[13] = DH5-alpha competent E. coli microbial cell viability qHTS against the NCATS CANVASS Library (AID 1347377); conditions: viability signal change, negative = cytotoxic: at 46.1 µM (top of the series)
Procedure, shortened: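 Cell viability of competent DH5-alpha E. coli is scored from ATP content by luminescence. Cells sit overnight at 37C with compound across an 11-point concentration series.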

[14] = qHTS for H2AX Agonists against the NCATS CANVASS Library (AID 1347378);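 note: phospho-H2AX S139 level in CHO-K1 lysates by TR-FRET emission ratio; potency is the fitted concentration of half-maximal effect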
Procedure, shortened: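 Following overnight seeding, CHO-K1 cells are incubated with a concentration series of compound for 3 hr at 37C (final DMSO 0.76%). Cells are then lysed, detection antibodies added, and emission ratio 665/620 nm recorded after 24 hr at room temperature.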

[15] = qHTS for activators of dead-cell proteases activity screened against the NCATS CANVASS Library (AID 1347392);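 note: luminescence from protease leaking out of membrane-damaged cells cleaving impermeant substrate; potency is the fitted concentration of half-maximal effect; rising signal means more cytotoxicity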
Procedure, shortened: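 Compounds are pin-transferred onto attached HepG2 cells, giving 11 final concentrations. After 5 h at 37C, AAF-aminoluciferin reagent is added and luminescence is recorded at room temperature.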

[16] = tested on: NAD(P)H diaphorase (Clostridium kluyveri); test: Diaphorse counterscreen qHTS: Assay Interference Panel against the NCATS CANVASS Library (AID 1347362); note: potency is the fitted concentration of half-maximal effect
Procedure, shortened: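 Counterscreen for coupling-enzyme interference: resorufin fluorescence from resazurin/NADH turnover, read after 5 min at room temperature. Compounds were tested over an 11-point series after 15 min dark preincubation with diaphorase in PBS-Tween.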

[17] = qHTS for Inflammasome Signaling Inhibitors: IL-1-beta AlphaLISA screen against the NCATS CANVASS Library (AID 1347379);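 note: human THP-1 cells primed with LPS then triggered with ATP; secreted IL-1B measured as AlphaLISA emission at 615 nm; potency is the fitted concentration of half-maximal effect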
Procedure, shortened: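 Human THP-1 cells were pretreated 1 hr at 37 °C with compounds (up to 57.5 uM final), then stimulated with LPS (250 ng/mL final) and ATP (1.25 mM final). Secreted IL-1B was read by AlphaLISA after 16 hr.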

[18] = Redox Reaction Profiling qHTS: Assay Interference Panel against the NCATS CANVASS Library (AID 1347401); note: potency is the fitted concentration of half-maximal effect
Procedure, shortened: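 Cell-free redox surrogate: 5 uM resazurin + 200 uM DTT, 50 mM HEPES pH 7.3/50 mM NaCl; cpds pinned, 11-pt qHTS; Ex525/Em598 read t0 and t=15 min, dark.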

SMILES: C=C[C@@]1(C)CC[C@@H]([C@H](C)C(C)=O)O1
- Potency [1]: inactive
- Potency [2]: inactive

SMILES: C/C1=C/[C@@H](C)[C@H](O)C/C=C/CC/C=C/C(=O)O[C@@H]1[C@H](C)C(=O)CCCC1CC(=O)NC(=O)C1
- Potency [3]: inconclusive: 18.8 µM [cytotoxic, single point]
- Potency [4]: active: 4.69 µM
- Potency [5]: inconclusive: 18.7 µM [cytotoxic, partial curve, poor fit]
- Potency [6]: inconclusive: 1.05 µM [cytotoxic, full curve, poor fit]

SMILES: CC(C)[C@@H]1CC(=O)c2coc3c2[C@H]1C[C@@H](C)C3=O
- Potency [3]: inconclusive: 26.5 µM [cytotoxic, partial curve, poor fit]
- Potency [7]: inconclusive: 26.4 µM [cytotoxic, single point]
- Potency [8]: inconclusive: 37.1 µM [inhibitor, partial curve, poor fit]
- Potency [6]: inconclusive: 18.6 µM [cytotoxic, partial curve, poor fit]

SMILES: CC(=O)O[C@@H]1C=C2C(=O)OC[C@]2(O)[C@@]2(C)CCCC(C)(C)[C@H]12
- Potency [9]: active: 26.4 µM
- Potency [1]: active: 13.2 µM
- Potency [7]: inconclusive: 37.2 µM [cytotoxic, single point]
- Potency [10]: inconclusive: 37 µM [cytotoxic, single point]
- Potency [11]: inconclusive: 23.4 µM [inhibitor, single point]
- Potency [5]: inconclusive: 33.2 µM [cytotoxic, single point]
- Potency [2]: inconclusive: 37.1 µM [inhibitor, single point]
- Potency [12]: inconclusive: 29.8 µM [activator, single point]
- Potency [13]: inconclusive: 33.1 µM [rising, partial curve, poor fit]
- Potency [14]: inconclusive: 48.6 µM [activator, single point]
- Potency [15]: inconclusive: 33.1 µM [activator, single point]

SMILES: CC[C@H]1[C@@H](C)[C@@H](c2cc(OC)c(OC)cc2OC)[C@H](C)[C@@H](c2cc(OC)c(OC)cc2OC)[C@@]12C=C(OC)C(=O)C=C2OC
- Potency [3]: inconclusive: 26.5 µM [cytotoxic, single point]
- Potency [16]: inconclusive: 19.3 µM [inhibitor, partial curve]
- Potency [1]: inconclusive: 33.2 µM [cytotoxic, single point]
- Potency [7]: inconclusive: 26.4 µM [cytotoxic, single point]
- Potency [11]: inconclusive: 18.6 µM [inhibitor, single point]
- Potency [14]: inconclusive: 54.5 µM [activator, single point]
- Potency [17]: inconclusive: 43.2 µM [inhibitor, single point]
- Potency [6]: inconclusive: 37.1 µM [cytotoxic, single point]

SMILES: C/C=C/C(=O)[C@@H](C)C1=CC(=O)C2=C(O[C@@]34CC[C@H](O)C(C)(C)[C@@H]3CC[C@H](C)[C@@]4(C)C2)C1=O
- Potency [3]: inconclusive: 29.8 µM [cytotoxic, single point]
- Potency [9]: inconclusive: 9.35 µM [activator, single point]
- Potency [16]: active: 8.61 µM
- Potency [12]: inconclusive: 21.1 µM [activator, single point]
- Potency [14]: active: 15.4 µM
- Potency [15]: inconclusive: 18.6 µM [activator, partial curve]
- Potency [18]: inactive

SMILES: C=C1CC[C@@H](O[C@H]2C[C@@](O)([C@H](C)NC(=O)c3[nH]c(C)c(Cl)c3Cl)[C@H](O)[C@@H](C)O2)[C@@H]2C=C[C@H](C)C(/C(O)=C3/C(=O)[C@H](C(C)C)N([C@@H]4O[C@H](C)[C@H](OC(N)=O)[C@H](OC(C)=O)[C@@H]4OC)C3=O)[C@@H]12 (some centres not stated)
- Potency [3]: inactive
- Potency [13]: inconclusive: 18.6 µM [rising, partial curve]
- Potency [8]: active: 16.6 µM
- Potency [18]: inconclusive: 17.1 µM [activator, partial curve]

SMILES: C/C=C/C1C=CC2CC(C)CC(C)C2C1C(=O)CC(=O)NC(CO)C/C=C/CCCCC (configuration not stated)
- Potency [16]: inconclusive: 21.6 µM [inhibitor, partial curve]
- Potency [10]: inconclusive: 37 µM [cytotoxic, partial curve, poor fit]
- Potency [2]: inactive
- Potency [13]: inconclusive: 23.4 µM [rising, single point]
- Potency [17]: inconclusive: 38.5 µM [inhibitor, single point]
- Potency [8]: inconclusive: 26.3 µM [inhibitor, partial curve, poor fit]
- Potency [6]: inconclusive: 37.1 µM [cytotoxic, single point]
